# Results as given in patent publication US5998375 (dated 1999).
# Assay: general procedure: Fmoc solid-phase peptide synthesis; Rink resin; HBTU in NMP; HOBT/EDAC; DCC symmetrical anhydrides or HOBt esters (Boc)
# Conditions: whole synthesis, scale 0.054 mmol
substance,measurement,value
F-a-G-F-T-G-A-R-K-S-A-R-K-L-A-N-Q-NH2,isolated mass,28 mg
